The nature of data set [1]: general procedure: Fmoc solid-phase peptide synthesis; DHP-HM resin; TBTU/HOBt/DIPEA (solution couplings). As to conditions: whole synthesis.
Data set [2] in a line: general procedure: Fmoc solid-phase peptide synthesis; DHP-HM resin (0.94 mmol/g) for TOC; TCP resin ([…]) for TATE; TBTU/HOBt/DIPEA (solution couplings). The settings on record: late stage modification step.

In data set [1], “Fmoc-Lys^0-Dphe^1-Cys^2-Tyr^3-DTrp^4-Lys (Dde) 5-Thr^6-Cys^7-Thr-ol^8” displayed a crude mass of 828 mg. In addition, the crude yield in data set [1] (scale of the general procedure 1.000 g resin) is 83%.
The substance Lys0(Nε-Boc-His (Boc))-TOC(Dde) showed a step yield in data set [2] of 86%.
